# From PubChem BioAssay AID1259415 (National Center for Advancing Translational Sciences (NCATS), 2018)
# “And” between values parts separate entries of the source, which are not always exact repeats. Equal entries are not always repeated. In all, about 410,000 compounds went through this assay and about 18,000 (4.4%) were called active. The shares of active, inactive and inconclusive entries below differ from those in the screen. No stated cut-off is given here; in the data, active means activity change below about -60%; inconclusive means no clear call, values can overlap the other calls; inactive means above about -39%.
# Experiment: qHTS Assay for inhibitors of the human cytomegalovirus (HCMV)
# Details: HFF cells, HCMV-luciferase reporter, 72 h; at 57.5 µM; active compounds read low
# Procedure, shortened: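 Compounds were evaluated in HFFs infected with an HCMV luciferase reporter virus (MOI 1 PFU/cell). Luciferase in lysates collected 72 h post infection served as the replication measure.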
# On the % scale 0 is the no-effect control and ±100 the full control effect.
row,Compound,"activity change, negative = inhibition"
1,O=C(CCn1nc(-c2ccc(Cl)cc2)c2ccccc2c1=O)NCC1CCCO1 (stereo unspecified),inconclusive: -47.6%
2,Cc1ccc(S(=O)(=O)Nc2ccc(-c3nnc(SCc4ccccc4Cl)o3)cc2)cc1,active: -83.5%
3,CNS(=O)(=O)c1cccc(C(=O)OCC(=O)c2c(N)n(Cc3ccccc3)c(=O)n(C)c2=O)c1,inactive: -39.4%
4,COc1ccccc1NC(=O)CCC(=O)OCc1ccc([N+](=O)[O-])cc1,inconclusive: -43.2%
5,O=C(Nc1nc2ccc(F)cc2s1)c1nc(S(=O)(=O)Cc2ccccc2)ncc1Cl,active: -107%
6,CCC(C)(C)C1CCc2[nH]nc(C(=O)NCCNC(=O)OC(C)(C)C)c2C1 (stereo unspecified),inconclusive: -45.2%
7,COc1ccc2sc(N(CCCN(C)C)C(=O)c3ccc(S(=O)(=O)N(C)C4CCCCC4)cc3)nc2c1,inconclusive: -40.7%
8,CC1CCc2c(sc3nc(C(C)(C)C)nc(N4CCN(C(=O)CCl)CC4)c23)C1 (stereo unspecified),active: -103%
9,Cc1ccc(CN2CCN(/N=C/c3cc(Br)ccc3O)CC2)cc1,inactive: 37%
10,Nc1ccc2ncccc2c1,inactive: -21.1%
11,c1ccc(CCCc2nc(-c3ccccn3)no2)cc1,inactive: 31.6%
12,CC(C)CSc1oc(-c2ccco2)nc1S(=O)(=O)c1ccccc1,inconclusive: -42.5%
13,COC(=O)C1=C(C)N(Cc2ccccc2)C(=NCCCOC(C)C)N[C@H]1c1ccccc1,inconclusive: -46.6%
14,O=C(Nc1cccc(S(=O)(=O)N2CCCCC2)c1)Nc1ccc(Cl)cc1Cl,active: -99.9%
15,O=C(NCC(F)(F)F)c1ccc2sc([C@@H]3O[C@H](CO)[C@H](O)[C@H](O)[C@H]3O)nc2c1,inconclusive: -48.3%
16,COc1ccc(-c2nc3ncccn3c2Nc2ccc3c(c2)OCCO3)cc1,inactive: 90.5%
17,Cc1c(Cl)cccc1NC(=O)C(C)n1nnc2sc3c(c2c1=O)CCCC3 (stereo unspecified),inactive: -10.7%
18,C(=C\c1nc(N2CCCCCC2)c2ccccc2n1)/c1ccccc1,inconclusive: -54.8%
19,Cc1c(C)n(C)c2ccc(C(=O)N3CCN(c4ccccc4)CC3)cc12,inconclusive: 0% and inconclusive: -41.4%
20,Cc1cc(C)c2sc(NNC(=O)c3ccc(S(=O)(=O)N4CCc5ccccc5C4)cc3)nc2c1,active: -106%
21,CCc1ccc(CNC(=O)CN2C(=O)c3cccnc3Oc3ccc(C)cc32)cc1,inconclusive: 0%
22,CCOC(=O)[C@]12CCCC=C1N(Cc1ccc3c(c1)OCO3)C(=O)[C@H](CC(=O)NCc1cccc(C(F)(F)F)c1)C2,active: -65.2%

row,Compound,"activity change, negative = inhibition"
1,CCCCOc1ccc(CNC(=O)CCCN2C(=O)CSc3c2c(C)nn3-c2ccccc2)cc1,active: -70.4%
2,O=C(Oc1c(CN2CCOCC2)cc(Cl)c2cccnc12)c1ccccc1F,active: -84.9%
3,CC1CC(NC2=NCCS2)CC(C)(C)C1 (stereo unspecified),active: -66.2%
4,CCCC(C)C(=O)NCc1ccncc1 (stereo unspecified),inconclusive: -45.9%
5,Brc1cccc(-c2nc3cccnc3nc2-c2cccc(Br)c2)c1,inactive: 12%
6,O=C(CCSc1nnnn1-c1ccccc1)N1CCOCC1,inactive: 30.9%
7,OC(Cc1ccncc1)c1ccccc1Cl (stereo unspecified),inactive: -16.9%
8,O=C(O)c1ccc(CNCc2cccc(OCc3ccc(F)cc3)c2)cc1,inconclusive: -58%
9,CCC(C)NCC(=O)Nc1cc(S(=O)(=O)N(CC)c2ccccc2)ccc1Cl (stereo unspecified),inconclusive: -46.4%
10,O=C(N/N=C/c1ccc(OC(=O)c2cccs2)cc1)c1cccc(F)c1,inactive: 16.2%
11,CS(=O)(=O)c1cccc(C(=O)Nc2ccccc2Cc2ccccc2)c1,inconclusive: -52.7%
12,CCCc1c(C(=O)N/N=C/c2ccc(-c3ccccc3)cc2)nnn1-c1nonc1N,inconclusive: -55.8%
13,CC(C)(C)OC(=O)N1CCC(c2c(C(=O)NCCN3CCC(Cc4ccccc4)CC3)cnn2-c2ccccc2)CC1,inconclusive: 0%
14,Cc1ccc2c(c1)C1(C(=O)N2C)N2CC3(C)CN1CC(C)(C2)C3=O (stereo unspecified),inconclusive: -42.2%
15,CCc1ccc(NC(=O)N2CC(C)Oc3ccc(C)cc32)cc1 (stereo unspecified),inactive: -17.6%
16,O=C(CSc1ccc(-c2ccc(F)cc2)nn1)N1CCCCC1,inactive: 87.7%
17,COc1ccc(CN2CCN(C(=O)c3ccc(S(=O)(=O)NCc4ccco4)cc3)CC2)cc1,active: -83.5%
18,CCCc1c(NC(=O)Nc2ccc(Cl)cc2Cl)cnn1-c1ccccc1,inconclusive: -40.4%
19,O=C(COc1ccc(F)c(Cl)c1)N1CCCCCCC1,inactive: 6.28%
20,O=C1C2CC=CCC2C(=O)N1SC(Cl)(Cl)Cl (stereo unspecified),active: -74%
21,CN(CC(=O)Nc1cccc(F)c1)C(=O)c1ccc(N2CCCCCC2)c([N+](=O)[O-])c1,inconclusive: -57.1%
22,CCn1c(=O)c(C(=O)Nc2ncccc2C)c(O)c2ccccc21,inconclusive: -51.7%

row,Compound,"activity change, negative = inhibition"
1,CCCn1c(COc2ccc(C(=O)O)cc2)nc2ccccc21,inactive: -2.14%
2,Nc1c(C(=O)NCCN2CCOCC2)c2nc3ccccc3nc2n1CCc1ccccc1,inconclusive: -41.2%
3,CCN(c1ccccc1)S(=O)(=O)c1ccc(Cl)c(NC(=O)c2ccc(=O)[nH]n2)c1,inconclusive: -49.4%
4,O=[N+]([O-])c1ccc2c(c1)C(=NO)c1cc(Cl)c(Cl)cc1-2,inconclusive: -40.7%
5,Oc1ccc(-c2[nH]ncc2-c2cccc3cccnc23)c(O)c1,inconclusive: -45.3%
6,CCN(C(=O)CSc1nnc(NCc2ccccc2)s1)C1CCS(=O)(=O)C1 (stereo unspecified),active: -74.2%
7,COc1ccc(N2CCN(S(=O)(=O)c3ccc4c(c3)CCCC4)CC2)c([N+](=O)[O-])c1,active: -86%
8,COc1ccc(C(=O)/C(=C/O)N=Nc2ccc(F)cc2)cc1,inconclusive: -59.7%
9,CCCCOCC1CN(CCCC)S(=O)(=O)c2c(cccc2Sc2ccc(SC)cc2)O1 (stereo unspecified),inactive: 21.8%
10,O=C(C[C@H]1CC[C@@H]2[C@H](COC[C@H](O)CN2Cc2cccc(C(F)(F)F)c2)O1)NCCc1ccccc1,inactive: -22.3%
11,COc1ccc(S(=O)(=O)N(CC(=O)NCc2ccc(C)cc2)c2ccc(Cl)cc2)cc1,inactive: -31.1%
12,COc1ccc(NC(=O)CO/N=C(\C)c2cccs2)cc1,inconclusive: -41.9%
13,Cc1ccc(CN2CCN(CC(=O)NCc3ccccc3Cl)C2=O)cc1,inactive: 1.83%
14,O=C(Nc1cccc(S(=O)(=O)NC2=NCCC2)c1)c1ccc(F)cc1,inconclusive: -51.2%
15,CCN(CC)CCNC(=O)c1ccc(NC(=O)c2ccc(COc3ccccc3)cc2)cc1,inconclusive: -49%
16,Cc1ccccc1NC(=O)c1cccc(N2C(=O)C3C4CCC(C4)C3C2=O)c1 (stereo unspecified),inactive: -6.22%
17,CCc1nc2ccc(C(=O)NCc3ccccc3OC)cn2c1N(CCC(C)C)CCN(C)C,inconclusive: -57.7%
18,Cc1c(C)c2ccc(OC(C)C(=O)NC3CC(C)(C)NC(C)(C)C3)cc2oc1=O (stereo unspecified),inactive: 94.4%
19,CCCCOC(=O)NC1(C)CCS(=O)(=O)C1 (stereo unspecified),inconclusive: -49.3%
20,COc1ccc(CNC(=O)c2ccc3c(c2)nc2n3CCCCC2)c(OC)c1,inactive: 40.8%
21,Cc1cc(C)cc(C(=O)NCC(=O)OCC(=O)N2c3ccccc3NC(=O)C2(C)C)c1,inactive: 3.92%
22,CC(C)Cc1nnc(NC(=O)CCC(=O)N2CCN(c3ccc(F)cc3)CC2)s1,inconclusive: -44.7%

row,Compound,"activity change, negative = inhibition"
1,O=C(c1nc2ccc(Cl)cn2c1CN1CCC[C@H]1CO)N1CCc2ccccc2C1,inactive: -22.1%
2,COc1cc(C2c3c(oc4ccccc4c3=O)C(=O)N2c2nnc(C(C)C)s2)cc(OC)c1OC (stereo unspecified),inactive: 7.56%
3,NS(=O)(=O)c1ccc(-c2cccc(/C=C3\SC(=O)NC3=O)c2)cc1,inconclusive: -45.2%
4,CCN(C(=O)Cc1c(C(=O)O)n(C)c2ccccc12)c1cccc(C)c1,inactive: -0.254%
5,CCCCN(C)C(=O)CCC(=O)Nc1ccc2nc(N3CCN(C)CC3)cc(C)c2c1,inconclusive: -53.4%
6,COc1ccc(CC(=O)Nc2nc(C)cs2)cc1OC,active: -69.9%
7,CCCSC1=C(C#N)C(c2ccccc2OCC)CC(=O)N1 (stereo unspecified),inactive: -9.64%
8,CCSc1ncc(Cl)c(C(=O)Nc2c(C(=O)Nc3ccc(Cl)cc3)oc3ccccc23)n1,inactive: -5.86%
9,COc1ccc(CC(=O)OC(C)CN2CCCCC2)cc1 (stereo unspecified),inconclusive: -49.6%
10,Cc1cccc(C(=O)NC2CCN(S(=O)(=O)c3ccccc3)CC2)c1,inconclusive: -46.3%
11,Cc1c(OCC(=O)NCCCN2CCCC2=O)ccc2c3c(c(=O)oc12)CCC3,inconclusive: -41%
12,CCOc1ccc(C(=O)Nc2ccc3nc(SCc4ccccc4)sc3c2)cc1,inactive: 2.21%
13,COc1ccc(Cn2cc(F)c(=O)n(CCC(C)C)c2=O)cc1[N+](=O)[O-],inconclusive: -46.1%
14,C=CCN(CC=C)C(=O)CN1C(=O)NC(c2ccccc2)(c2ccccc2)C1=O,inactive: -8.44%
15,COc1ccccc1C1=NNC(=Nc2cccc(S(=O)(=O)N(C)C)c2)SC1,active: -80.3%
16,Cc1ccc(C)c(S(=O)(=O)Nc2cccc(-n3cnnn3)c2)c1,inconclusive: -41.5%
17,CCOc1ccc(/C=N/NC(=O)c2cc3c(OC)cccc3[nH]2)cc1,active: -63.1%
18,Cc1ccc(N2CCN(C(=S)c3ccc(N(C)C)cc3)CC2)cc1,inactive: -1.96%
19,O=C(NCCc1nc2ccccc2[nH]1)c1ccc(F)cc1,inconclusive: -55.2%
20,Cc1cccc(SC2CCN(C(=O)C3CCC(=O)N(C4CC4)C3)CC2)c1 (stereo unspecified),inconclusive: -44.1%

# As entered above.
# For activity change, negative = inhibition, COc1ccccc1C1=NNC(=Nc2cccc(S(=O)(=O)N(C)C)c2)SC1 shows active: -80.3%
# For activity change, negative = inhibition, CCOc1ccc(C(=O)Nc2ccc3nc(SCc4ccccc4)sc3c2)cc1 shows inactive: 2.21%
# For activity change, negative = inhibition, COc1ccc(CC(=O)Nc2nc(C)cs2)cc1OC shows active: -69.9%
# For activity change, negative = inhibition, C=CCN(CC=C)C(=O)CN1C(=O)NC(c2ccccc2)(c2ccccc2)C1=O shows inactive: -8.44%
# For activity change, negative = inhibition, Cc1cccc(C(=O)NC2CCN(S(=O)(=O)c3ccccc3)CC2)c1 shows inconclusive: -46.3%
# For activity change, negative = inhibition, Cc1c(OCC(=O)NCCCN2CCCC2=O)ccc2c3c(c(=O)oc12)CCC3 shows inconclusive: -41%
